## Screening data, single-dose tests

By UniProt entry, the sequences of proteins in these tests, tags left out. Residues count along the entry.
UniProt P9WPC5, whole entry: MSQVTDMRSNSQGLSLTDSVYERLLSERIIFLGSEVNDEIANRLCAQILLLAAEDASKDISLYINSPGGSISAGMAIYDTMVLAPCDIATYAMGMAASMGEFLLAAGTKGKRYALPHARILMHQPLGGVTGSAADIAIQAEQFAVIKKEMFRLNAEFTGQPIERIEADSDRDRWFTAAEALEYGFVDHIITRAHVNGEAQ
UniProt P9WPC3, whole entry partner: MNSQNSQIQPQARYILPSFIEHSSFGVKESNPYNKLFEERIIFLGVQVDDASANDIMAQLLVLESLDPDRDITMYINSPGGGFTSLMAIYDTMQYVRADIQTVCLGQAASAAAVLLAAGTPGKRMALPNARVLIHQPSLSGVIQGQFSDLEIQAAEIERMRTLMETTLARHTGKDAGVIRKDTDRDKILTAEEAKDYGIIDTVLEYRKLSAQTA
UniProt Q4DA54, 1-478: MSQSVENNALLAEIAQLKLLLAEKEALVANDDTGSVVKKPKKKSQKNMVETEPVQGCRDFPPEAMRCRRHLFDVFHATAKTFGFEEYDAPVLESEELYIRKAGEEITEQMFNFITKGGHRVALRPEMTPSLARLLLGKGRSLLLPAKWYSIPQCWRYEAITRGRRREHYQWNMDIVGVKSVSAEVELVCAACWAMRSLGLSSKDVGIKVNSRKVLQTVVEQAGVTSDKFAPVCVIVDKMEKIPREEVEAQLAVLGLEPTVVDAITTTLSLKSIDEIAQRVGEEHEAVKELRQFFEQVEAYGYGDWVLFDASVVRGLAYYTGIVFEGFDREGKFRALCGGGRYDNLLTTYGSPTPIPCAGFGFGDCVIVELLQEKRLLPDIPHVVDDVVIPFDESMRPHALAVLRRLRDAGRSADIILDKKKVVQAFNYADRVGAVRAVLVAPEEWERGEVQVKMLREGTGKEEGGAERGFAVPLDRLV
UniProt Q8IDJ8, 1-583: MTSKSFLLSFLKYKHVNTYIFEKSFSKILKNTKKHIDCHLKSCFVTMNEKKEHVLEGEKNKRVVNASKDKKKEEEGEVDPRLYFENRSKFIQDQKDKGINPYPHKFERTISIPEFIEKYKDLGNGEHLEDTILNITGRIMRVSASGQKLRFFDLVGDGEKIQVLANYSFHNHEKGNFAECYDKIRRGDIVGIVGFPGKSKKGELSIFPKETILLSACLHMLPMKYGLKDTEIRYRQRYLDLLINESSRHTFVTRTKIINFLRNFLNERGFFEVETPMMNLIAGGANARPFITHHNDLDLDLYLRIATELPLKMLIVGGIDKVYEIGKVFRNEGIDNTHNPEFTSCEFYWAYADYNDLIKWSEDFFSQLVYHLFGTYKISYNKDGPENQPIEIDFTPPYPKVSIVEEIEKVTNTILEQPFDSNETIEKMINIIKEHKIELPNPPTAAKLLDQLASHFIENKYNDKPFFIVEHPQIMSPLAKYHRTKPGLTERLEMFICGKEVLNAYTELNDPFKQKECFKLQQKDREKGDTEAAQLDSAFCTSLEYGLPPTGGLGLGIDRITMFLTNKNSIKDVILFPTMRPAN
UniProt I6X8D2, whole entry: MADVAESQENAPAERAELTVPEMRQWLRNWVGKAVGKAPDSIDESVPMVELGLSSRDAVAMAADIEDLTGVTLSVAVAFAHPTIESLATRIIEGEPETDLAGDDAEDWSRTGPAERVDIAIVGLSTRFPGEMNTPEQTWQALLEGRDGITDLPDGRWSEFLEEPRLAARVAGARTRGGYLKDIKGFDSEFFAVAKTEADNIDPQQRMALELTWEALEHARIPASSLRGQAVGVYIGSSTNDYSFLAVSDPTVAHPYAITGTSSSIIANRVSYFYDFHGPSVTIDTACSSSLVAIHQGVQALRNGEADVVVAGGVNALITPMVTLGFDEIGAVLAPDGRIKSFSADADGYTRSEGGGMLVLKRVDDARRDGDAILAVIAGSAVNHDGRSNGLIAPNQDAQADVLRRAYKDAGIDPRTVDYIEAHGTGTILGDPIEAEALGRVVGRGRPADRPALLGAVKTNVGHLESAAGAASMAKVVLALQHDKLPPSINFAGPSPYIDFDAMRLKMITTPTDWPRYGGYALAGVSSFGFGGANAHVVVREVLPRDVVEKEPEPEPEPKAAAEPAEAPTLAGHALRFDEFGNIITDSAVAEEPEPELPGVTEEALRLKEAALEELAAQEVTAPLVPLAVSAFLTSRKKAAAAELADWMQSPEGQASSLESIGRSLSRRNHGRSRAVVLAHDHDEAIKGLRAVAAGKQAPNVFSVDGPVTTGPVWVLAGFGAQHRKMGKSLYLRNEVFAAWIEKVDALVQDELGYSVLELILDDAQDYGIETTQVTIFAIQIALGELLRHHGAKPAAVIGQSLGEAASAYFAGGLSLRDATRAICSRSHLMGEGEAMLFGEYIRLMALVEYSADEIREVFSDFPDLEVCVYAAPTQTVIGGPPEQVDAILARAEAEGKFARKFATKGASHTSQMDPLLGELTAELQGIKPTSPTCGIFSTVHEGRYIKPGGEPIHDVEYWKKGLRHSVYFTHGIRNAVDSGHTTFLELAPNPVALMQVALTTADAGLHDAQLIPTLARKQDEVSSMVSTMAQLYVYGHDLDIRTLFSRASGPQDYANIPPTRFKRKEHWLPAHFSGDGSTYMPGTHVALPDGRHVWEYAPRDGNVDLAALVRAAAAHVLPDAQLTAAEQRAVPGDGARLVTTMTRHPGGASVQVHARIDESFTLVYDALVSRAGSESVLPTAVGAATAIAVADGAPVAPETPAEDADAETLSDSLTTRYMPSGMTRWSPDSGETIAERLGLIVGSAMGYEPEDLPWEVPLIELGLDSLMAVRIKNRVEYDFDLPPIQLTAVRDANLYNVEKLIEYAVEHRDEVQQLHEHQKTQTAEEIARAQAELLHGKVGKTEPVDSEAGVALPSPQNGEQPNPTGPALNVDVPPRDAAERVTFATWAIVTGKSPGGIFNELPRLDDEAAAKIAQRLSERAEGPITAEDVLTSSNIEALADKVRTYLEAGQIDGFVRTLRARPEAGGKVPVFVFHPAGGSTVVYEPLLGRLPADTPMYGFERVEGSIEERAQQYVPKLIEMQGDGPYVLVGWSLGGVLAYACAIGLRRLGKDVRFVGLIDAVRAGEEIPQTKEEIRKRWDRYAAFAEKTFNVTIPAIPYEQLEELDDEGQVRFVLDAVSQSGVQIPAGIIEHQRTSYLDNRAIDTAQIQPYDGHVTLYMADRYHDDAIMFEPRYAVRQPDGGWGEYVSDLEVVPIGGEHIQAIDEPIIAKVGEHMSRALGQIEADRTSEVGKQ

Measurements from “University of Dundee, Small-Polar-MMV Screening Library” (2021), ChEMBL document CHEMBL3988442.

ClpP1P2: 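Protease assay of ClpP1P2, read by the AMC dye that it sets free. Target: ClpP1P2, Mycobacterium tuberculosis (UniProt P9WPC5 and UniProt P9WPC3). Tested at 50 µM. Higher reads as stronger inhibition, judged from the few compounds that gave an IC50. Most other retested compounds had strongly negative values. Of about 69,000 compounds tested this way, about 10 (0.015%) reached 50% or more in at least one test.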
TcHisRS: 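Histidine-tRNA ligase, Trypanosoma cruzi CL Brener (UniProt Q4DA54). Enzyme assay of histidyl-tRNA synthetase; the read-out is not stated. Compounds at 30 µM. The record gives no direction; compounds that gave an IC50 in retests scored well above the rest, so higher reads as stronger inhibition. Size under these conditions: about 69,000 compounds, about 31 of them at 50% or above in at least one test.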
PfKRS1: 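Enzyme assay of the cytosolic lysyl-tRNA synthetase in 384-well plates, read by luminescence. Target: Lysine-tRNA ligase, Plasmodium falciparum 3D7 (UniProt Q8IDJ8). Compounds at 30 µM. Higher reads as stronger inhibition, judged from the few compounds that gave an IC50. Size under these conditions: about 69,000 compounds, about 49 of them at 50% or above in at least one test.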
Pks13 thioesterase: 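Enzyme assay of the thioesterase domain of polyketide synthase 13; the read-out is not stated. Target: Polyketide synthase Pks13, Mycobacterium tuberculosis (UniProt I6X8D2). Compounds at 30 µM. The record gives no direction; the compounds picked for IC50 retests had high values, so higher reads as stronger inhibition. Size under these conditions: about 67,000 compounds, about 300 of them at 50% or above in at least one test.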

Each number is a percent effect as filed. How 0% and 100% were set is not recorded. Most values in the screen are low, and negative values occur. The compounds are a random part of those screened. A dash means the value is not listed here; it may have been measured.

COc1ccc(-c2noc([C@@H]3C[C@H](NC(=O)NC(C)C)CN3C)n2)cc1 gave ClpP1P2: -7.71%; TcHisRS: 1.087%; PfKRS1: -3.682%.
CC(=O)N1CC[C@@H](N2CCN(C)CC2)[C@@H]1Cc1ccccc1 gave ClpP1P2: 3.857%; TcHisRS: 1.604%; PfKRS1: 3.756%; Pks13 thioesterase: -35.22%.
CC(=O)N1CCN(Cc2ccccn2)CC2(CC(=O)N(C)C2)C1 (stereo unspecified) gave ClpP1P2: 4.91%; TcHisRS: 3.759%; PfKRS1: 1.85%; Pks13 thioesterase: -3.022%.
COc1cc(-c2cnnc(NCCSC)n2)cc(OC)c1OC gave ClpP1P2: -3.254%; TcHisRS: 0%; PfKRS1: 0.7563%; Pks13 thioesterase: -6.164%.
Cc1nc(COCc2cnc3n2CCN(C)C3C)cs1 (stereo unspecified) gave ClpP1P2: -27.13%; TcHisRS: 8.458%; PfKRS1: 7.725%; Pks13 thioesterase: -0.8018%.
Cc1ncccc1CNC1CCCN(Cc2noc(C3CC3)n2)C1 (stereo unspecified) gave ClpP1P2: -8.67%; TcHisRS: 4.094%; PfKRS1: -0.2768%; Pks13 thioesterase: -13.42%.
Cc1ncsc1CN1CC[C@H]2OCC[C@@]2(C(=O)N(C)C)C1 gave ClpP1P2: -1.514%; TcHisRS: 3.226%; PfKRS1: 3.836%; Pks13 thioesterase: -31.85%.
N#CC1(C(=O)N2C[C@H]3CC[C@@H]2CN(Cc2ccncc2)C3)CCOCC1 gave ClpP1P2: 5.487%; TcHisRS: 3.03%; PfKRS1: 4.508%; Pks13 thioesterase: 7.199%.
COc1ccc(Br)cc1CC(=O)Nc1cc(C)n[nH]1 gave ClpP1P2: -6.591%; TcHisRS: -4.124%; PfKRS1: -4.855%; Pks13 thioesterase: 3.881%.
CN(Cc1ccc([S+](C)[O-])cc1)c1ccc(C(F)(F)F)cn1 (stereo unspecified) gave ClpP1P2: -20.36%; TcHisRS: 0%; PfKRS1: 2.878%; Pks13 thioesterase: 16.14%.
CC(C)NC(=O)Nc1ccc(CNCc2cccc(C#N)c2)cc1 gave ClpP1P2: 4.082%; TcHisRS: 7.985%; PfKRS1: 5.359%; Pks13 thioesterase: -5.828%.
Cc1nn(C)cc1Cn1cc(Cl)c(N)n1 gave ClpP1P2: -2.795%; TcHisRS: 4.762%; PfKRS1: 6.382%; Pks13 thioesterase: -15.58%.
CCC1CCCCN1CCc1ccncc1 (stereo unspecified) gave ClpP1P2: 10.64%; TcHisRS: 0%; PfKRS1: -2.627%; Pks13 thioesterase: -11.66%.
CCc1c(C)nc2cc(C3CCN(CCc4ccccc4)C3)nn2c1O (stereo unspecified) gave ClpP1P2: -10.29%; TcHisRS: 25.53%; PfKRS1: 2.42%.
CCCOCCn1ncc(N2CCc3ccccc3C2)cc1=O gave ClpP1P2: -8.693%; TcHisRS: -200%; PfKRS1: 1.588%; Pks13 thioesterase: -12.45%.
CC(O)CN1CCN(C(=O)c2cnn(-c3ccccc3F)c2)CC1 (stereo unspecified) gave ClpP1P2: -1.061%; TcHisRS: -1.245%; PfKRS1: 1.313%; Pks13 thioesterase: -8.473%.
CN(C)[C@@H]1CCN(C(=O)c2ccsc2)[C@H]1Cc1cnn(C)c1 gave ClpP1P2: 4.959%; TcHisRS: 3.825%; PfKRS1: 1.966%; Pks13 thioesterase: -27.6%.
CS(=O)(=O)CCC(=O)NC1(c2cccc(C(F)(F)F)c2)CCC1 gave ClpP1P2: -4.855%; TcHisRS: 1.754%; PfKRS1: 6.692%; Pks13 thioesterase: -38.29%.
c1ccc(Cn2cccn2)c(CN2CCCCC2CCn2ccnc2)c1 (stereo unspecified) gave ClpP1P2: -6.825%; TcHisRS: 7.65%; PfKRS1: -0.3154%; Pks13 thioesterase: -38.75%.
c1cc2n(n1)CC(CNCc1ccc(OC3CCCCC3)nc1)CN2 (stereo unspecified) gave ClpP1P2: 9.838%; TcHisRS: -0.7634%; PfKRS1: 1.913%; Pks13 thioesterase: -4.766%.
OCCNc1cc(-c2ccncc2)ncn1 gave ClpP1P2: -6.018%; TcHisRS: 11.3%; PfKRS1: 4.937%; Pks13 thioesterase: 16.62%.
Cc1cc(C)c(CNC(=O)N2CCCC2c2cccn2C)c(=O)[nH]1 (stereo unspecified) gave ClpP1P2: 1.917%; TcHisRS: 12.41%; PfKRS1: 3.17%; Pks13 thioesterase: -4.834%.
O=C(O)c1cc2c(nc1NCC1CC1)CCN(C1CCOC1)CC2 (stereo unspecified) gave ClpP1P2: -1.628%; TcHisRS: 1.075%; PfKRS1: -2.358%; Pks13 thioesterase: -14.48%.
O=C1CCN(C(=O)NCCc2c[nH]c3ccc(Cl)cc23)CCN1 gave ClpP1P2: -16.84%; TcHisRS: 6.061%; PfKRS1: 1.713%; Pks13 thioesterase: -10.11%.
Cc1nn(-c2ccc(C(=O)O)cc2)c2c1C(C(C)C)SCC(=O)N2 (stereo unspecified) gave ClpP1P2: -11.75%; TcHisRS: 6.25%; PfKRS1: 3.647%; Pks13 thioesterase: -18.87%.

Repeated from the top, 2 entries:

Compound,ClpP1P2,TcHisRS,PfKRS1,Pks13 thioesterase
COc1ccc(-c2noc([C@@H]3C[C@H](NC(=O)NC(C)C)CN3C)n2)cc1,-7.71,1.087,-3.682,-
CC(=O)N1CC[C@@H](N2CCN(C)CC2)[C@@H]1Cc1ccccc1,3.857,1.604,3.756,-35.22